Results from the supplement of paper PMC10849652.
This is one part of the list.

Amino acid sequences for entries named in this document (tags omitted). A change or cut given only in a name is not applied to a line headed by its entry.
UniProt Q96QG7: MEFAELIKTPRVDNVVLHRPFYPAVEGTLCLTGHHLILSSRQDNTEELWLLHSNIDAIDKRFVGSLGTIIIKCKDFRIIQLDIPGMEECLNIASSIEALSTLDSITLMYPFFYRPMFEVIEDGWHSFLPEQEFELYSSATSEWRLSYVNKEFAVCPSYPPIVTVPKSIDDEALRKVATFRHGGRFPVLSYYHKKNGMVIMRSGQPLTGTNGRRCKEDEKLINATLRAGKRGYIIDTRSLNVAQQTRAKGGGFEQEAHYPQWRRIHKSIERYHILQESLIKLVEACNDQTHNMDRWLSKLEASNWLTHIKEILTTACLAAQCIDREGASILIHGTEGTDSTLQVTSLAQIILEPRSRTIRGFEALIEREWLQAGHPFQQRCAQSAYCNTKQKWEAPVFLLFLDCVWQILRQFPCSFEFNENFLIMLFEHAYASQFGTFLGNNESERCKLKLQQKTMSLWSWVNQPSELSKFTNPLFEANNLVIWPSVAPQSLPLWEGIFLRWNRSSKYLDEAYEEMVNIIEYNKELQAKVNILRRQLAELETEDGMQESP
UniProt Q99417: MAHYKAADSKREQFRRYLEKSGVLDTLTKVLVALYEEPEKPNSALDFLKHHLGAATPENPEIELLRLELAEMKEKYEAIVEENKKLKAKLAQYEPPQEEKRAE
UniProt Q15390: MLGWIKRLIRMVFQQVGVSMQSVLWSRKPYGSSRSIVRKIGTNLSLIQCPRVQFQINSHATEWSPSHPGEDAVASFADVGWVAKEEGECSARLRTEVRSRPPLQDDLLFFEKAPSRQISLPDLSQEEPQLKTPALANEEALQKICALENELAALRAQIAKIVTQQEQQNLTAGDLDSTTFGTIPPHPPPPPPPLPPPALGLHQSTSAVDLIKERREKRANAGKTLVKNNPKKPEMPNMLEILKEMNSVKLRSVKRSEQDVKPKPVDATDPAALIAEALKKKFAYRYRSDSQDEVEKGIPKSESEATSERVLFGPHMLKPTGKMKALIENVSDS
UniProt P43246, whole entry, looked up: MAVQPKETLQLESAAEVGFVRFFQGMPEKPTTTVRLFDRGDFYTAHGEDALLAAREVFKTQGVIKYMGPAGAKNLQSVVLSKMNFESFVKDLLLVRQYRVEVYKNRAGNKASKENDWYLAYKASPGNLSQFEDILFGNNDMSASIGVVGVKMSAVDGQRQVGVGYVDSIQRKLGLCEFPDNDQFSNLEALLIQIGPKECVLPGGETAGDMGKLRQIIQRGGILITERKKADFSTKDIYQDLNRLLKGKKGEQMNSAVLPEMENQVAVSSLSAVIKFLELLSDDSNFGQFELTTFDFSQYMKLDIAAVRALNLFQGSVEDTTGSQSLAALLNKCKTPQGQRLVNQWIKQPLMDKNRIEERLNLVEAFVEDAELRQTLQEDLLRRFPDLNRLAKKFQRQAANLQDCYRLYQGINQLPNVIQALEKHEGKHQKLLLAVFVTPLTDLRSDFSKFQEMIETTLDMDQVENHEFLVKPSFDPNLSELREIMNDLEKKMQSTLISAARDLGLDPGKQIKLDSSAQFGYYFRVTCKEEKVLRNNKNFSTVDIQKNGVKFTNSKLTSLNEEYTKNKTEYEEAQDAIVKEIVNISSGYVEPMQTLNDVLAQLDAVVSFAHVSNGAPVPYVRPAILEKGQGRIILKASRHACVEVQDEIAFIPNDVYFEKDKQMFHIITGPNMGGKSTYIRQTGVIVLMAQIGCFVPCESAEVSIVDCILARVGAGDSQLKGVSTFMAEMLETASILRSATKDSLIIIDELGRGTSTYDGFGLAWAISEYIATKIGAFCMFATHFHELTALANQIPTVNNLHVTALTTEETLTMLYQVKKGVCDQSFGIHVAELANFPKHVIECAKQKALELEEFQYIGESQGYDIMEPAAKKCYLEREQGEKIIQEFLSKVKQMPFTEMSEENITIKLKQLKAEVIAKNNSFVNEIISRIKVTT
UniProt Q96DR8: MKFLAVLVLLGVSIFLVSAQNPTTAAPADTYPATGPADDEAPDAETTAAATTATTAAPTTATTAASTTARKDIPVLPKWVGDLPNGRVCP
UniProt P03915, whole entry, looked up: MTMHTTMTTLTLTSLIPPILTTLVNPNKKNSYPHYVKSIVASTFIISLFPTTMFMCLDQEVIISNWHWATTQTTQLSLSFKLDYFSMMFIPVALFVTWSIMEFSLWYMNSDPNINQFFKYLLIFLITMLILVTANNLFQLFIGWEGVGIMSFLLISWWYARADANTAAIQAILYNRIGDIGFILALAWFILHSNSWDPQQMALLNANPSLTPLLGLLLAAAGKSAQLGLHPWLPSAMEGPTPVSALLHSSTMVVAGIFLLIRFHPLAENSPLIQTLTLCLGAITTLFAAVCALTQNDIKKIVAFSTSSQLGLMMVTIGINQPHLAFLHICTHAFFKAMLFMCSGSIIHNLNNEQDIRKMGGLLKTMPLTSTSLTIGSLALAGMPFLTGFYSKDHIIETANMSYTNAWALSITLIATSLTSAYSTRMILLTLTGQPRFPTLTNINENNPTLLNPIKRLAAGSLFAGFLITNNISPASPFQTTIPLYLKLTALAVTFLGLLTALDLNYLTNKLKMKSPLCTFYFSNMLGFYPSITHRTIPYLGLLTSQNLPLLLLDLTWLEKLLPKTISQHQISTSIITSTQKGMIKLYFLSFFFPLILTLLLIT
UniProt Q15746, whole entry, looked up: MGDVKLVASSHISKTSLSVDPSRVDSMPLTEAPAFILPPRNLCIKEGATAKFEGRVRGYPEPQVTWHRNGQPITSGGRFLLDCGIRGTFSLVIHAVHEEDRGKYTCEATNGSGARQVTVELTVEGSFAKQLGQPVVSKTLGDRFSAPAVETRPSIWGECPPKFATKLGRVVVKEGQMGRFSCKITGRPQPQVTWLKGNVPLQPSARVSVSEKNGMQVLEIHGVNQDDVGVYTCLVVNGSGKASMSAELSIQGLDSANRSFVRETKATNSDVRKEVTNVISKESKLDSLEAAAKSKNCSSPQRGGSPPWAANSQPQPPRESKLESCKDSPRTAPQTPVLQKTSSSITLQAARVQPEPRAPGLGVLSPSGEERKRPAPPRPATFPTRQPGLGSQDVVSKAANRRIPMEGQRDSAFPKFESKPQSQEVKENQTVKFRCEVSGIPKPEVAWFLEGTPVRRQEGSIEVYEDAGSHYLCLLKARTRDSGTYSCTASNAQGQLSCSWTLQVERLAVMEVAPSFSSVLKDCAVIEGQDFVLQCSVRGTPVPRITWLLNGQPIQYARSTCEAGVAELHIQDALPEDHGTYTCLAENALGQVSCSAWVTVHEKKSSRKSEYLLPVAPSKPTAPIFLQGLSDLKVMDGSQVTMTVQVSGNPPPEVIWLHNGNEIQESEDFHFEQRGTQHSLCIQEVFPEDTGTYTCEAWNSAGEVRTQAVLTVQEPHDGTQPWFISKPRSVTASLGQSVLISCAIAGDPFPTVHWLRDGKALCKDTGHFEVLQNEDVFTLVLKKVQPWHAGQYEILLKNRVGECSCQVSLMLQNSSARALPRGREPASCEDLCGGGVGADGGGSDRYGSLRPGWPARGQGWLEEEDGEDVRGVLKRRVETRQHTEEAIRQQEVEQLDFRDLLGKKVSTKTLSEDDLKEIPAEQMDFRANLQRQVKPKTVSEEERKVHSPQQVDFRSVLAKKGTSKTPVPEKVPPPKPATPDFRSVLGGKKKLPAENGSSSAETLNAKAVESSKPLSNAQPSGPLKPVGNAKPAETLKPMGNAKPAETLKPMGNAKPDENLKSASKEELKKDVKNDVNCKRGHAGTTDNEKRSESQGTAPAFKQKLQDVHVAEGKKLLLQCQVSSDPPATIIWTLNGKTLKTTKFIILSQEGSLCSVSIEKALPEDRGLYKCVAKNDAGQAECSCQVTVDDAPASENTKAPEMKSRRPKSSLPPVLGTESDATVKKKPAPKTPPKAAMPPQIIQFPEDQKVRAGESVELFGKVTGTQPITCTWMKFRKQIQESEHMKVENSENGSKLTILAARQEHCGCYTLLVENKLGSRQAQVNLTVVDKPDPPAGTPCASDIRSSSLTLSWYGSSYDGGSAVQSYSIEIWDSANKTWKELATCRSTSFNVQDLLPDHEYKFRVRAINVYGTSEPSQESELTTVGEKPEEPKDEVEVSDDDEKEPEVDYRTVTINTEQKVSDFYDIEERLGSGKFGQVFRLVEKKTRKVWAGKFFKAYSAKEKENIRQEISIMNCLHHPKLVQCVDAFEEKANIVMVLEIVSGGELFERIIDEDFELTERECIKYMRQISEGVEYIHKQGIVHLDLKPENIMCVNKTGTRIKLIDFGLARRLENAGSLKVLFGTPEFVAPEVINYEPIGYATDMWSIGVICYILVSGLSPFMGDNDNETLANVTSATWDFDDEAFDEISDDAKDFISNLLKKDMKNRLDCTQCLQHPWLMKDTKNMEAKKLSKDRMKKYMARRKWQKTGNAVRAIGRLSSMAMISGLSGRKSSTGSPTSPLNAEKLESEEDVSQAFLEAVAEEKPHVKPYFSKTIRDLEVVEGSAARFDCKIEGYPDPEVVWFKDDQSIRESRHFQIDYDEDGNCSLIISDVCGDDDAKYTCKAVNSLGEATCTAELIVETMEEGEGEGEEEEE
UniProt P49914: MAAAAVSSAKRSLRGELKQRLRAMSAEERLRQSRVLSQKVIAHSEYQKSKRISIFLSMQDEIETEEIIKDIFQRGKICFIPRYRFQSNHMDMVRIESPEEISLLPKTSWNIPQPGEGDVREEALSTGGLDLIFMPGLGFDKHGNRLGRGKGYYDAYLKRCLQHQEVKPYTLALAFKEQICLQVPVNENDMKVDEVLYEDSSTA
UniProt Q68DK7: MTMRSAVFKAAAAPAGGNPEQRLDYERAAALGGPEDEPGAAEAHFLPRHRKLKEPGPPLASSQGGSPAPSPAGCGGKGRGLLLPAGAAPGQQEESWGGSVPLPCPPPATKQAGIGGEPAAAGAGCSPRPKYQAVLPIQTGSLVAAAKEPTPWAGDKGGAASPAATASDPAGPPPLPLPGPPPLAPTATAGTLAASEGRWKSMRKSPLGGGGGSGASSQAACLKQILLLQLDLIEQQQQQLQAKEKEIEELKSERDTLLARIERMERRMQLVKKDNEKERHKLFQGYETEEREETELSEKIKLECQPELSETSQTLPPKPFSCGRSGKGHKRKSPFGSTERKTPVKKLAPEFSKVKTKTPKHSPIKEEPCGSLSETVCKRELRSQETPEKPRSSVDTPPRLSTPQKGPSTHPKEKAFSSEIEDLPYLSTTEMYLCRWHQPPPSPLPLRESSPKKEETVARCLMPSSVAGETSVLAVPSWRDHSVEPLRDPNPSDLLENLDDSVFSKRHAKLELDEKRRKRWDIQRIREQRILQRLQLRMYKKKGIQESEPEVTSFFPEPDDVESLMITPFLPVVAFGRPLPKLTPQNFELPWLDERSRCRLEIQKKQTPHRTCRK
UniProt P08590, whole entry, looked up: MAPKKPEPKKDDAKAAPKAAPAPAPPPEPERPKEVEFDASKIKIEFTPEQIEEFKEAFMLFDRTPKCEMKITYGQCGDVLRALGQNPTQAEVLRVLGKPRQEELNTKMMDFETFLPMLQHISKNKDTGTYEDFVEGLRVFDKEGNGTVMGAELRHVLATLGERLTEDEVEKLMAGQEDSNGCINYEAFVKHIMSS
UniProt P03886, whole entry, looked up: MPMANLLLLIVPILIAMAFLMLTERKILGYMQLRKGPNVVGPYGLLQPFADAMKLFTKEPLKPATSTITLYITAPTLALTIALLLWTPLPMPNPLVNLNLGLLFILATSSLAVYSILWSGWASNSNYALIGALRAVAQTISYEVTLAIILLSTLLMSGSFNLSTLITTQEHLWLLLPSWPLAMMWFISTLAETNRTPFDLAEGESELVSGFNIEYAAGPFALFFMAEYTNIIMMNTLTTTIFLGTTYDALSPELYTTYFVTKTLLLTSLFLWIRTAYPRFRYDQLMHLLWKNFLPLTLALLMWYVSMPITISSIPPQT
UniProt Q8NCE2: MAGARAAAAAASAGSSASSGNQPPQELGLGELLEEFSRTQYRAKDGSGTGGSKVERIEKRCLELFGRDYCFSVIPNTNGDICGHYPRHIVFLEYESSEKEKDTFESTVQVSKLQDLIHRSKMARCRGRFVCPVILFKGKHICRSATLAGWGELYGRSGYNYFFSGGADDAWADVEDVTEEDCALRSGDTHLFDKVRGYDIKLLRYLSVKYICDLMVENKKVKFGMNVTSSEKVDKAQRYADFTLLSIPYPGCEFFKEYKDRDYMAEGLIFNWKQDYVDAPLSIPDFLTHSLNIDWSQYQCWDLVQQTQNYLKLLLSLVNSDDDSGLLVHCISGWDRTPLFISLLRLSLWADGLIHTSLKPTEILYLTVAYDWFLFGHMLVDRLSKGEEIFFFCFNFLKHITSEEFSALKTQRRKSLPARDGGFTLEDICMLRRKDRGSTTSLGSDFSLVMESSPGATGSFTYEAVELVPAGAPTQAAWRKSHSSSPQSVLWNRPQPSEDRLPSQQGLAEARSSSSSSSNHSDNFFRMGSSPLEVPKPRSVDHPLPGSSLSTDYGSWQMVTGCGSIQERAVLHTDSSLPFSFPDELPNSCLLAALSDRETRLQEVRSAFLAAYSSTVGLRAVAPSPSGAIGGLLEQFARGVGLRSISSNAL

How the values were obtained:
Assay in all cases: log2 fold change, soluble protein after heating vs DMSO (PISA); higher = thermal stabilisation; K562 cells, 10 uM, 30 min; active = over 0.2 and 3.5 SD of the protein, either way, in both replicates (recomputed)
[1] = compound: CC[C@@H]1C(=O)N(C)c2cnc(Nc3ccc(C(=O)NC4CCN(C)CC4)cc3OC)nc2N1C1CCCC1
Summary of the method: (§1)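 Values are thermal stability changes relative to control samples and are taken from duplicates. They are stated as log2 fold changes. Before quantification by TMTpro 16plex LC-MS/MS with equalised channel sums, K562 cells at 2×10^6 cells/mL were treated with 10 μM compound for 30 min, heated in aliquots for 3 min across 48°C-58°C, pooled, extracted in PBS with 0.5% NP-40 at 4°C, and centrifuged at 21,000xg for 90 min to give the soluble supernatant.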

volasertib = compound: CC[C@@H]1C(=O)N(C)c2cnc(Nc3ccc(C(=O)N[C@H]4CC[C@H](N5CCN(CC6CC6)CC5)CC4)cc3OC)nc2N1C(C)C [volasertib]
Summary of the method: as §1

[2] = compound: CC[C@H](C)N1C=C(C2=C(C=C(C=C21)C3=CN=C(C=C3)N4CCNCC4)C(=O)NCC5=C(C=C(NC5=O)C)C)C
Summary of the method: as §1

epoxomicin = compound: CC[C@H](C)[C@@H](C(=O)N[C@@H]([C@@H](C)O)C(=O)N[C@@H](CC(C)C)C(=O)[C@]1(CO1)C)NC(=O)[C@H]([C@@H](C)CC)N(C)C(=O)C [epoxomicin]
Summary of the method: as §1

[3] = compound: CCn1c(C(=O)N(C2CC2)C2CC2)cc2c3c(ncn3C)c(Nc3cc(C)n(C)n3)nc21
Summary of the method: as §1

[4] = compound: CCn1cc(-c2ccnc3[nH]c(-c4cccc(CN(C)C)c4)cc23)c(-c2ccc(NC(=O)N(C)C)cc2)n1
Summary of the method: as §1

[5] = compound: CN(C)CC(=O)Nc1ccc2[nH]c(=O)c3ccccc3c2c1
Summary of the method: as §1

rosiglitazone = compound: CN(CCOC1=CC=C(C=C1)C[C@H]2C(=O)NC(=O)S2)C3=CC=CC=N3 (racemic) [rosiglitazone]
Summary of the method: as §1

[6] = compound: CN1C2=C(C3=C1C(=O)N(N=C3)CC4=CC(=CC=C4)N)SC(=C2)S(=O)C
Summary of the method: as §1

[7] = compound: CN1CCC(CNc2ccc3ncc(-c4cccc(OC(F)(F)F)c4)n3n2)CC1
Summary of the method: as §1

Target | log2 fold change [1] | log2 fold change (volasertib) | log2 fold change [2] | log2 fold change (epoxomicin) | log2 fold change [3] | log2 fold change [4] | log2 fold change [5] | log2 fold change (rosiglitazone) | log2 fold change [6] | log2 fold change [7]
MTMR9 (UniProt Q96QG7) | inactive: 0.009 | inactive: -0.098 | inactive: -0.053 | inactive: -0.004 | inactive: -0.003 | inactive: -0.086 | inactive: 0.044 | inactive: -0.019 | inactive: -0.015 | inactive: -0.035
MYCBP (UniProt Q99417) | inactive: 0.033 | inactive: 0.094 | inactive: -0.065 | inactive: 0.004 | inactive: 0.008 | inactive: -0.038 | inactive: -0.019 | inactive: 0.003 | inactive: 0.011 | inactive: -0.02
MTFR1 (UniProt Q15390) | inactive: -0.021 | inactive: -0.034 | inactive: -0.017 | inactive: 0.073 | inactive: 0.02 | inactive: -0.121 | inactive: -0.047 | inactive: 0.016 | inactive: 0 | inactive: -0.159
MYO18A (UniProt Q92614) | inactive: -0.077 | inactive: -0.12 | inactive: 0.017 | inactive: -0.054 | inactive: 0.031 | inactive: 0.062 | inactive: -0.039 | inactive: -0.013 | inactive: 0.062 | inactive: -0.007
MRPS11 (UniProt P82912) | inactive: 0.056 | inactive: 0.081 | inactive: 0.159 | inactive: -0.086 | inactive: -0.197 | inactive: 0.118 | inactive: -0.069 | inactive: 0.099 | inactive: 0.016 | inactive: 0.42
MRPS5 (UniProt P82675) | inactive: 0.005 | inactive: -0.066 | inactive: 0.181 | inactive: 0.077 |  | inactive: -0.05 | inactive: -0.037 |  | inactive: 0.032 | inactive: 0.102
MTCH1 (UniProt Q9NZJ7) | inactive: 0.054 | inactive: 0.064 | inactive: -0.018 | inactive: -0.035 | inactive: -0.004 | inactive: -0.038 | inactive: -0.016 | inactive: -0.002 | inactive: -0.108 | inactive: 0.104
MSH2 (UniProt P43246) | inactive: -0.103 | inactive: -0.173 | inactive: 0.039 | inactive: 0.066 |  | inactive: 0.036 | inactive: 0.059 |  | inactive: -0.019 | inactive: -0.067
MTCH2 (UniProt E9PIE4) | inactive: -0.025 | inactive: 0.023 | inactive: 0.006 | inactive: 0.036 | inactive: 0.017 |  | inactive: 0.029 | inactive: -0.009 | inactive: -0.083 | 
MYO6 isoform 6 (UniProt Q9UM54) | inactive: 0.079 | inactive: 0.007 | inactive: -0.027 | inactive: -0.005 | inactive: -0.024 | inactive: -0.132 | inactive: -0.009 | inactive: 0.004 | inactive: -0.096 | inactive: 0.037
MVB12A (UniProt Q96EY5) | inactive: -0.055 | inactive: -0.127 | inactive: 0.056 | inactive: 0.016 | inactive: -0.022 | inactive: 0.073 | inactive: 0.18 | inactive: -0.001 | inactive: -0.013 | inactive: -0.101
MRPS14 (UniProt O60783) | inactive: 0.02 | inactive: 0.056 | inactive: -0.085 | inactive: -0.068 |  | inactive: 0.003 | inactive: -0.003 | inactive: -0.024 | inactive: 0.032 | inactive: -0.071
MSMO1 (UniProt Q15800) | inactive: 0.05 | inactive: 0.066 | inactive: -0.031 | inactive: 0.057 | inactive: -0.028 | inactive: 0.077 | inactive: -0.019 | inactive: -0.04 | inactive: -0.029 | inactive: -0.103
MUCL1 (UniProt Q96DR8) | inactive: 0.026 | inactive: -0.23 | inactive: 0.332 | inactive: 0.741 | inactive: 0.102 | inactive: 0.295 | inactive: -0.169 | inactive: 1.13 | inactive: 0.35 | inactive: -0.295
MRPS18A isoform 2 (UniProt Q9NVS2) | inactive: 0.154 | inactive: 0.228 | inactive: 0.008 | inactive: -0.102 | inactive: -0.035 | inactive: 0.005 | inactive: -0.062 | inactive: 0.019 | inactive: 0.108 | inactive: 0
MYADM (UniProt Q96S97) | inactive: 0.019 | inactive: 0.011 | inactive: -0.022 | inactive: 0.058 | inactive: 0.049 | inactive: 0.184 | inactive: 0.025 | inactive: 0.042 | inactive: 0.085 | inactive: -0.051

Target | log2 fold change [1] | log2 fold change (volasertib) | log2 fold change [2] | log2 fold change (epoxomicin) | log2 fold change [3] | log2 fold change [4] | log2 fold change [5] | log2 fold change (rosiglitazone) | log2 fold change [6] | log2 fold change [7]
MT-ND5 (UniProt P03915) | inactive: 0.032 | inactive: -0.076 | inactive: 0.025 | inactive: -0.011 | inactive: 0.053 | inactive: 0.071 | inactive: 0.029 | inactive: 0.003 | inactive: 0.035 | inactive: 0.035
MT-ATP6 (UniProt P00846) | inactive: 0.043 | inactive: -0.091 | inactive: -0.057 | inactive: 0.105 |  | inactive: -0.152 | inactive: -0.095 |  | inactive: -0.239 | inactive: -0.16
MRPS18C (UniProt Q9Y3D5) | inactive: 0.036 | inactive: 0.145 |  | inactive: -0.084 | inactive: 0.008 | inactive: 0.223 | inactive: -0.025 | inactive: -0.241 | inactive: 0.008 | inactive: -0.181
MYLK (UniProt Q15746) | inactive: -0.015 | inactive: -0.148 | inactive: -0.172 |  |  | inactive: 0.042 | inactive: 0.184 |  | inactive: -0.126 | inactive: -0.005
MRPS24 (UniProt Q96EL2) | inactive: -0.004 | inactive: 0.121 | inactive: 0.126 | inactive: -0.067 |  | inactive: -0.095 | inactive: 0 |  | inactive: -0.004 | inactive: 0.07
MTHFS (UniProt P49914) | inactive: 0.082 | active: 0.236 | inactive: 0.034 | inactive: 0.11 |  | inactive: 0.02 | inactive: 0.034 |  | inactive: -0.022 | inactive: -0.019
MRPS6 (UniProt P82932) | inactive: -0.015 | inactive: -0.045 | inactive: 0.03 | inactive: -0.012 |  | inactive: -0.067 | inactive: 0.09 |  | inactive: -0.021 | inactive: 0.027
MRPS16 (UniProt Q9Y3D3) | inactive: 0.012 | inactive: -0.088 | inactive: 0.018 | inactive: 0.041 |  | inactive: -0.116 | inactive: 0.046 |  |  | inactive: 0.052
MTOR (UniProt P42345) | inactive: -0.131 | active: -0.305 | inactive: 0.04 | inactive: -0.021 |  | inactive: -0.073 | inactive: 0.036 |  | inactive: 0.017 | active: -0.286
MSL1 (UniProt Q68DK7) | inactive: 0.077 | inactive: 0.002 | inactive: -0.19 | inactive: 0.007 |  | inactive: -0.26 | inactive: -0.087 |  | inactive: 0.098 | inactive: -0.161
MYL3 (UniProt P08590) | inactive: 0.044 | inactive: 0.136 | inactive: -0.014 |  | inactive: 0.019 | inactive: 0.016 |  | inactive: -0.102 | inactive: 0.039 | inactive: -0.027
MT-ND1 (UniProt P03886) | inactive: -0.157 | inactive: 0.147 | inactive: 0.035 | inactive: 0.063 |  |  | inactive: 0.253 |  | inactive: -0.115 | 
MT-CO1 (UniProt P00395) | inactive: 0.075 | inactive: -0.023 | inactive: 0.02 |  | inactive: 0.044 |  | inactive: -0.028 | inactive: 0.01 |  | 
MRPS12 (UniProt O15235) | inactive: -0.043 | inactive: -0.024 | inactive: 0.077 | inactive: -0.001 |  | inactive: -0.072 | inactive: -0.103 |  | inactive: 0.091 | inactive: -0.014
MTMR14 (UniProt Q8NCE2) | inactive: -0.194 | active: -0.622 | inactive: 0.037 | inactive: 0.019 |  | inactive: -0.056 | inactive: 0.001 |  | inactive: 0.022 | inactive: -0.039

Reprinted at random: 2 records from the list.
Target | log2 fold change [1] | log2 fold change (volasertib) | log2 fold change [2] | log2 fold change (epoxomicin) | log2 fold change [3] | log2 fold change [4] | log2 fold change [5] | log2 fold change (rosiglitazone) | log2 fold change [6] | log2 fold change [7]
MRPS24 (UniProt Q96EL2) | inactive: -0.004 | inactive: 0.121 | inactive: 0.126 | inactive: -0.067 |  | inactive: -0.095 | inactive: 0 |  | inactive: -0.004 | inactive: 0.07
MYLK (UniProt Q15746) | inactive: -0.015 | inactive: -0.148 | inactive: -0.172 |  |  | inactive: 0.042 | inactive: 0.184 |  | inactive: -0.126 | inactive: -0.005
